Assay results taken from patent publication US6002071.
The exact form of at least one protein or probe is not confirmed. For part of these data: Results from cells or extracts need not show a direct contact. For part of these data: A weaker result is weaker than the reference pair of the same experiment.

Assays:
[1] = tested on: TBBF (TAC-box binding factor) in nuclear / whole cell extract (Nicotiana tabacum); assay: EMSA; details: protein in an extract
[2] = tested on: TBBF (TAC-box binding factor, FPLC-purified + 17 and 19 kD polypeptides) (Nicotiana tabacum); assay: EMSA; details: one complex with ds oligo; 7469 units/ug in E-FPLC-UF (1 unit binds 1 fmol oligo); purified native protein

Sequence	binding result ([1]; variant of EAS4 promoter Fragment D wild type)	binding result [2]	binding result ([1]; whole cell extracts, Mg2+ dependent, incubation with EDTA at 37 C inhibits)
CAACTCTAGTGTACTCCC (double strand) [EAS4 Fragment D with M2-TAC-box]	binds more weakly		
AGCTACTCTACAGTACTC / AGCTGAGTACTGTAGAGT [ds TAC-box oligonucleotide (dsTACc/dsTACn)]		binds	binds
